Reference: patent publication US20050261472A1, “Binding moieties for fibrin” (Dyax Corp., priority 1999, published 2005)
Results are given in words; binding and its absence hold for the method and conditions named. Some results given as binding are weak or reduced against the parent protein; the word gives no strength.

T1: dried fibrin (UniProt P02671 36-629; P02675 45-491; P02679 27-437, limits assumed)
T1 construct: Polymerised fibrin made in 96-well plates from fibrinogen and thrombin, dried at 37 C and rehydrated; also called (rehydrated) dried fibrin; fibrin target
T1 sequence (looked up) 1: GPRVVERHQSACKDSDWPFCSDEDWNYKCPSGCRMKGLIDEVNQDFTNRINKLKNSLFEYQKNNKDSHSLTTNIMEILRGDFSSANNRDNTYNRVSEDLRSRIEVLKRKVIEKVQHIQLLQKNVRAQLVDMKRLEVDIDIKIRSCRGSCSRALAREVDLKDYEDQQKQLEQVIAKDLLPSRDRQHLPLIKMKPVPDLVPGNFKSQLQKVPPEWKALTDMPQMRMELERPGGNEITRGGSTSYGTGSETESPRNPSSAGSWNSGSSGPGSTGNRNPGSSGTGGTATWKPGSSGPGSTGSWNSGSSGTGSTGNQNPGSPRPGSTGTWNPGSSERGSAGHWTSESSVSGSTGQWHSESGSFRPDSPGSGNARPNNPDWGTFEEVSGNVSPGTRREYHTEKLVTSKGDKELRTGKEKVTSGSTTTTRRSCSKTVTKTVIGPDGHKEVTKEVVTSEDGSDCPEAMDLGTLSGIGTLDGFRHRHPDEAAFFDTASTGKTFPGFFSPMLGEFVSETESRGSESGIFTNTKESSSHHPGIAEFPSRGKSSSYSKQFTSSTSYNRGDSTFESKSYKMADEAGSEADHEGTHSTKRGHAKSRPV
T1 sequence (looked up) 2: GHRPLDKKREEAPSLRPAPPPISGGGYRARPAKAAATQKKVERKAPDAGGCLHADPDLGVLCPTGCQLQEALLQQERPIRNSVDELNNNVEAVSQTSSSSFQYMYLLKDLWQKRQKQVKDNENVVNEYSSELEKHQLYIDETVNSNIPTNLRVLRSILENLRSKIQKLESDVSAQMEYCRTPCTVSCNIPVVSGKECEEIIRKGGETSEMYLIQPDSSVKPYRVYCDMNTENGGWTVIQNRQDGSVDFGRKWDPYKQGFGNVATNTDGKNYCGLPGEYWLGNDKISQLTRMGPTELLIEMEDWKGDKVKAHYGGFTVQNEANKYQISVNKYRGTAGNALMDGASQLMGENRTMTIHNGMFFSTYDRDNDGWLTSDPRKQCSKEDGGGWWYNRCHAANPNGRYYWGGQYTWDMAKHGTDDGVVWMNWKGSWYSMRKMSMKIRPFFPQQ
T1 sequence (looked up) 3: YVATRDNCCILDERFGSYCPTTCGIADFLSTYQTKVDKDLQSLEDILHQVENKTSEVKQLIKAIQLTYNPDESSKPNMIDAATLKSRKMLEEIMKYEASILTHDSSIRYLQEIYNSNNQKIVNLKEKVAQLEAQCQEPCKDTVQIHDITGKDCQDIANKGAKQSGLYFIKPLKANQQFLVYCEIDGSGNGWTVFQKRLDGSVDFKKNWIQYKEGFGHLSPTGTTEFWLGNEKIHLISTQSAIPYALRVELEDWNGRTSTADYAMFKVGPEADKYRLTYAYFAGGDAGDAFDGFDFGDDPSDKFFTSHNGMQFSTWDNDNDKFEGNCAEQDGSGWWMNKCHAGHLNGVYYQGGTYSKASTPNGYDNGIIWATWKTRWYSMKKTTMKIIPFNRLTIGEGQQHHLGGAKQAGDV


What was measured:
dried fibrin [1] = target: T1, dried fibrin; test: phage binding assays as for the TN7 library
dried fibrin [2] = target: dried fibrin (UniProt P02671); test: phage ELISA on dried fibrin plate, anti-M13-HRP; relative binding
dried fibrin [3] = target: T1, dried fibrin; test: as above

Binder	binding (dried fibrin [2])	binding (dried fibrin [3])	also measured
QWECPYGLCWIQ (peptide, not shown: large carriers)			binding (dried fibrin [1]): binds
LPCSYYGTCLH (peptide, not shown: large carriers) [TN7 isolate 5, phage-displayed …]	binds		
NHGCYNSYGVPYCDYS (peptide, not shown: large carriers)			binding (dried fibrin [1]): binds
HDCQYYGTCLH (peptide, not shown: large carriers) [TN7 isolate 11, phage-displayed …]		binds	
WFHCPYDLCHIL (peptide, not shown: large carriers)			binding (dried fibrin [1]): binds
LSCDYYGTCLR (peptide, not shown: large carriers) [TN7 isolate 2, phage-displayed …]		binds	
RFLCYDSYYHWWCSHH (peptide, not shown: large carriers)			binding (dried fibrin [1]): binds
DGCHYYGTCLH (peptide, not shown: large carriers) [TN7 isolate 8, phage-displayed …]		binds	
FACHYYGTCLH (peptide, not shown: large carriers) [TN7 isolate 6, phage-displayed …]	binds		
RPCNYYGTCLH (peptide, not shown: large carriers) [TN7 isolate 10, phage-displayed …]	binds		
DPCSYYGTCLH (peptide, not shown: large carriers) [TN7 isolate 4, phage-displayed …]		binds	
RSCNYYGTCLH (peptide, not shown: large carriers) [TN7 isolate 9, phage-displayed …]		binds	
FSCWYSLHCHR (peptide, not shown: large carriers) [TN7 isolate 12, phage-displayed …]		binds	
LPCDYYGTCLD (peptide, not shown: large carriers) [TN7 isolate 3, phage-displayed …]	binds		
LACHYYGTCLH (peptide, not shown: large carriers) [TN7 isolate 7, phage-displayed …]		binds	
RPCDYYGTCFD (peptide, not shown: large carriers) [TN7 isolate 1, phage-displayed …]	binds		
